At least one structure is not confirmed: it was looked up by name or label, or the drawing left a doubt. Some compounds share one wording; it may come from a single statement. Residues, ends and D or L forms follow the SMILES beside them.
Target: T1, binding between IKKβ and full-length Regnase-1 (FL_Reg1) (Homo sapiens, UniProt Q5D1E8)
T1 construct: made in house; host or cells: Expi293 cells
T1 sequence (Q5D1E8 1-599): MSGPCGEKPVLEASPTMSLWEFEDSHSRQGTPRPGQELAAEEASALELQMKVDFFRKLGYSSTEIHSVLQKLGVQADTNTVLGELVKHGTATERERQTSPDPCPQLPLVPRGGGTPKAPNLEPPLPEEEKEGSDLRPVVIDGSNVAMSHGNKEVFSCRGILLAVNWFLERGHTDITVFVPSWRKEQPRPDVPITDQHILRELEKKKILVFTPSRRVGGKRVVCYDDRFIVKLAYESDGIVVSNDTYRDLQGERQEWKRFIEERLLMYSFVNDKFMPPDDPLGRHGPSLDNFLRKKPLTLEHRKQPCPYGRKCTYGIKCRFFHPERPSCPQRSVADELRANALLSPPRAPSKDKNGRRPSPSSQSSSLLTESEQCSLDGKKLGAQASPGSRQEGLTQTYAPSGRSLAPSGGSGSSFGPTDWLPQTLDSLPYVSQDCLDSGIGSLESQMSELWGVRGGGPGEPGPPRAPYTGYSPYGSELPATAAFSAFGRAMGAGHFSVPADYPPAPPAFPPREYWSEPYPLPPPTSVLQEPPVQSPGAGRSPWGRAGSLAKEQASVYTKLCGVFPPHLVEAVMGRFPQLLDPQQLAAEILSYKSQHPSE
Assay: Inhibition of kinase-Regnase-1 binding by the compounds (AlphaScreen), IKKβ
Description: As a target protein, a construct having a FLAG tag on the N-terminal side and a recognition sequence for biotin ligase BirA on the C-terminal side of the full-length sequence of human Regnase-1 (UniProt ID: Q5D1E8) was prepared (FL_Reg1). The above-mentioned Regnase-1 was expressed in mammalian Expi293 cells, purified with FLAG M2 agarose, and isolated by gel filtration chromatography. When biotinylation was required, methods from nonpatent documents (BMC biotechnology, 2008,8,41; and Protein Science, 1999,8,921-929) were used.
After mixing 2.5 nM of the above-mentioned Regnase-1 and the compound, 2.5 nM of IKKβ or TBK1 was added and reacted at room temperature for two hours. Then, Anti FLAG AlphaLISA Acceptor Beads (manufactured by PerkinElmer) and Glutathione-coated AlphaScreen Donor Beads (manufactured by PerkinElmer) were added, and excited luminescence was measured using En Vision (manufactured by PerkinElmer). As the results, the inhibition rate from the signals obtained when adding the compound at each concentration were calculated, by defining the signal obtained with Regnase-1 alone to be 100% inhibition rate, and the signal obtained when the same amount of solvent (DMSO) is added in place of the compound as 0% inhibition rate. The 50% inhibition concentration (μM) was calculated from the obtained dose response curve (Table 12).

| SMILES | inhibition of binding of Regnase-1 (FL_Reg1) to IKKβ, in words |
| --- | --- |
| CC[C@H](C)[C@@H]1NC(=O)[C@H](CCCNC(=N)N)NC(=O)[C@H](Cc2ccc(O)cc2)NC(=O)[C@H](Cc2c[nH]c3ccccc23)NC(=O)[C@H](C)NC(=O)[C@H](CO)NC(=O)[C@H](C)NC(=O)[C@H](Cc2c[nH]cn2)NC(=O)[C@H](CCCCN)NC(=O)[C@@H](C)N(C)C(=O)C[C@@H](C(=O)N2CCCC2)NC(=O)[C@H](Cc2c[nH]c3ccccc23)NC1=O [PP3] (HELM PEPTIDE1{[C[C@H](C(=O)[*:2])N(C)[*:1]].K.H.A.S.A.W.Y.R.I.W.D.[C1CCN([*:1])C1]}$PEPTIDE1,PEPTIDE1,1:R1-12:R3$$$V2.0) | inhibited the binding |
| CC[C@H](C)[C@@H]1NC(=O)[C@H](CCCCN)NC(=O)[C@H](Cc2ccccc2)NC(=O)[C@H](Cc2c[nH]c3ccccc23)NC(=O)[C@H](CO)NC(=O)[C@H](CO)NC(=O)[C@H](CC(N)=O)NC(=O)[C@@H]2CCCN2C(=O)[C@@H](C)N(C)C(=O)C[C@@H](C(=O)N2CCCC2)NC(=O)[C@H](Cc2c[nH]c3ccccc23)NC1=O [PP6] (HELM PEPTIDE1{[C[C@H](C(=O)[*:2])N(C)[*:1]].P.N.S.S.W.F.K.I.W.D.[C1CCN([*:1])C1]}$PEPTIDE1,PEPTIDE1,1:R1-11:R3$$$V2.0) | inhibited the binding |
| CC(C)[C@@H]1NC(=O)[C@H](CCCCN)NC(=O)[C@H](Cc2ccc(O)cc2)NC(=O)[C@H](Cc2c[nH]c3ccccc23)NC(=O)[C@H](CO)NC(=O)[C@H]([C@@H](C)O)NC(=O)[C@H](C)N(C)C(=O)C[C@@H](C(=O)N2CCCC2)NC(=O)[C@H](CCC(N)=O)NC(=O)CNC(=O)[C@H](Cc2c[nH]c3ccccc23)NC(=O)[C@H](CC(N)=O)NC1=O [PP1] (HELM PEPTIDE1{[meA].T.S.W.Y.K.V.N.W.G.Q.D.[C1CCN([*:1])C1]}$PEPTIDE1,PEPTIDE1,1:R1-12:R3$$$V2.0) | did not |
| CC[C@H](C)[C@@H]1NC(=O)[C@H](CC(N)=O)NC(=O)[C@H](Cc2ccc(O)cc2)NC(=O)[C@H](Cc2c[nH]c3ccccc23)NC(=O)[C@H](CO)NC(=O)[C@H](CC(N)=O)NC(=O)[C@H](C)NC(=O)[C@H](Cc2ccc(O)cc2)NC(=O)CNC(=O)[C@H](C)N(C)C(=O)C[C@@H](C(=O)N2CCCC2)NC(=O)[C@H](Cc2c[nH]c3ccccc23)NC1=O [PP2] (HELM PEPTIDE1{[meA].G.Y.A.N.S.W.Y.N.I.W.D.[C1CCN([*:1])C1]}$PEPTIDE1,PEPTIDE1,1:R1-12:R3$$$V2.0) | inhibited the binding |
| CC[C@H](C)[C@@H]1NC(=O)[C@H](CC(N)=O)NC(=O)[C@H](Cc2ccc(O)cc2)NC(=O)[C@H](Cc2c[nH]c3ccccc23)NC(=O)[C@H](C)NC(=O)[C@H](CC(N)=O)NC(=O)[C@H](CO)NC(=O)[C@H](Cc2c[nH]cn2)NC(=O)[C@H](C)N(C)C(=O)C[C@@H](C(=O)N2CCCC2)NC(=O)[C@H](Cc2c[nH]c3ccccc23)NC1=O [PP5] (HELM PEPTIDE1{[meA].H.S.N.A.W.Y.N.I.W.D.[C1CCN([*:1])C1]}$PEPTIDE1,PEPTIDE1,1:R1-11:R3$$$V2.0) | inhibited the binding |
